{"source": "patent US20010006660A1", "about": "“LOW-RIGIDITY LIPOSOMAL FORMULATION” (priority 1999, published 2001)", "tested_on": "Candida albicans, strain 7238", "test": "MIC of yeast strain", "type": "cell-based", "description": "Yeast respiratory infections are a major problem in immunocompromised patients. To evaluate the fungicide activity of the liposomal-amphotericin B formulation produced according to the present invention (DPPC/DMPG), in vitro tests were performed against Candida albicans, strain 7238, MIC=1 μg/ml. To culture tubes containing 22.5 ml of C. albicans cells (final cell concentration of 103/ml), 7.5 ml of RPMI medium 1640 containing liposome-amphotericin B (final concentration of 0.125 μg/ml), free amphotericin B (final concentration of 0.125 μg/ml), or control PBS were added at time zero. Experiments were done in triplicate. At times 0, 3, 6, 12, 24, and 36 hours following the addition of antibiotic or control, 1.5 ml samples were collected and serial 10 fold dilutions were made and spread in triplicate on proteose peptone agar plates. CFU were counted after 24 hour and 48 hour incubations ar 37° C. under CO2. Counts were expressed in log CFU per ml of culture media."}
{"smiles": "C[C@@H]1[C@H](O)[C@@H](C)/C=C/C=C/C=C/C=C/C=C/C=C/C=C/[C@H](O[C@@H]2O[C@H](C)[C@@H](O)[C@H](N)[C@@H]2O)C[C@@H]2O[C@](O)(C[C@@H](O)C[C@@H](O)[C@H](O)CC[C@@H](O)C[C@@H](O)CC(=O)O[C@H]1C)C[C@H](O)[C@H]2C(=O)O", "note": "[amphotericin B]", "values": [{"measurement": "MIC", "result": 1, "unit": "µg/mL"}]}
